This is an account of results in paper PMC1885977.

This assay has as its target T1, p34-Arc-CTAP (D. discoideum p34-Arc with a C-terminal TAP tag) (D. discoideum) (UniProt O96623).
T1 sequence: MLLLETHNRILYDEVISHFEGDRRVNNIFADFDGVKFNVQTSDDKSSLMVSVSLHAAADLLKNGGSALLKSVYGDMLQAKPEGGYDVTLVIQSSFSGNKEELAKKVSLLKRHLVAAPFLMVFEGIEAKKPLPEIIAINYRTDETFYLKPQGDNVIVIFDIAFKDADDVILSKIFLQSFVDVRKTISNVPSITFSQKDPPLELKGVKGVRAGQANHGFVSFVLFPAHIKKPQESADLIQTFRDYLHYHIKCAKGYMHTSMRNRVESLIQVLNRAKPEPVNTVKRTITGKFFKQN
Nature of the assay: affinity purification with mass spectrometry; tandem affinity purification from Triton X-100 lysates of 2 x 10^9 AX2 cells: IgG-agarose (150 mM NaCl, 10 mM Tris pH 8.0, 0.1% NP-40, 4 °C), release by TEV protease, calmodulin resin, elution with EGTA; SDS-PAGE, colloidal blue, bands identified by MALDI-TOF/TOF; controls: cells with pDV-CTAP and pDV-CGFP-CTAP.

These are yes or no findings as the source states them, for the method shown. In cells and extracts the contact can be indirect. Here binding means that the protein was enriched with, or labelled near, the bait; the list need not be complete. A no says only that the protein was not detected with the bait. Where a sequence is shown, tags or fusion partners need not be part of it.

Turning to “discoidin B (D. discoideum (endogenous in AX2))”, the binding result is reported as “no binding”.
